Laboratory results: patent US20110305629A1

How the values were obtained:
[1] = target: soluble αvβ6 (Homo sapiens (Human)); assay: ELISA (FIG. 6) and blocking of biotinylated αvβ6 to LAP (FIG. 7), purified mAbs
[2] = target: soluble αvβ6 (Homo sapiens (Human)); assay: ELISA on soluble αvβ6, purified antibodies (FIG. 6)

B1: hu3G9 version 5 (H3/L5), pKJS168 and pKJS188 pairing (antibody, human IgG1, V domains shown)
VH: EVQLVESGGGLVQPGGSLRLSCAASGFTFSRYVMSWVRQAPGKGLEWVASISSGGRMYYPDTVKGRFTISRDNAKNSLYLQMNSLRAEDTAVYYCARGSIYDGYYVFPYWGQGTLVTVSS
VL: EIVLTQSPATLSLSPGERATLSCSASSSVSSSYLYWYQQKPGQAPRLLIYSTSNLASGIPARFSGSGSGTDFTLTISSLEPEDFAVYYCHQWSTYPPTFGGGTKVEIK
binding [1]: binds | binding [2]: binds

No constants are given. Whether binding was seen depends on the method and setting. A result given as binding can be weak or reduced; the word gives no strength.
